From the supplement of paper PMC10849652
Some of the results follow.

The chains behind the UniProt entries cited, without tags or fusion partners. Where a name states a change or a piece, a line headed by the entry shows the natural chain unless it says otherwise.
UniProt Q9NYZ2: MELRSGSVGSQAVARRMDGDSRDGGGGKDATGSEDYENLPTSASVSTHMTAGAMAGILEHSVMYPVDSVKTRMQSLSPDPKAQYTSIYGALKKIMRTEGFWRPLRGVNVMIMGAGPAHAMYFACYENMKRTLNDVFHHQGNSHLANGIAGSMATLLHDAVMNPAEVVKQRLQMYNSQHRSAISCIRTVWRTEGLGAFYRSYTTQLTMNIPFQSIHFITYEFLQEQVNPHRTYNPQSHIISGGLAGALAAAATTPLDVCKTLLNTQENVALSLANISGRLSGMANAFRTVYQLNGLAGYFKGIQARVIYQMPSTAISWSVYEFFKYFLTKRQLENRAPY
UniProt Q9BQT8: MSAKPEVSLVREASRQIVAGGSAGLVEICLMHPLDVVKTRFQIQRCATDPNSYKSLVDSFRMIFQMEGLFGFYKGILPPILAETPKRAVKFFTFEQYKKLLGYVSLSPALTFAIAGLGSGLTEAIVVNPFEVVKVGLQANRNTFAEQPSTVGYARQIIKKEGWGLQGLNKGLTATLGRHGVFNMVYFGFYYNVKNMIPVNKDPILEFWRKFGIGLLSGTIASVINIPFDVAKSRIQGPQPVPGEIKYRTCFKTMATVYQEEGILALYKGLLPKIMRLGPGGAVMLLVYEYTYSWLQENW
UniProt P04920: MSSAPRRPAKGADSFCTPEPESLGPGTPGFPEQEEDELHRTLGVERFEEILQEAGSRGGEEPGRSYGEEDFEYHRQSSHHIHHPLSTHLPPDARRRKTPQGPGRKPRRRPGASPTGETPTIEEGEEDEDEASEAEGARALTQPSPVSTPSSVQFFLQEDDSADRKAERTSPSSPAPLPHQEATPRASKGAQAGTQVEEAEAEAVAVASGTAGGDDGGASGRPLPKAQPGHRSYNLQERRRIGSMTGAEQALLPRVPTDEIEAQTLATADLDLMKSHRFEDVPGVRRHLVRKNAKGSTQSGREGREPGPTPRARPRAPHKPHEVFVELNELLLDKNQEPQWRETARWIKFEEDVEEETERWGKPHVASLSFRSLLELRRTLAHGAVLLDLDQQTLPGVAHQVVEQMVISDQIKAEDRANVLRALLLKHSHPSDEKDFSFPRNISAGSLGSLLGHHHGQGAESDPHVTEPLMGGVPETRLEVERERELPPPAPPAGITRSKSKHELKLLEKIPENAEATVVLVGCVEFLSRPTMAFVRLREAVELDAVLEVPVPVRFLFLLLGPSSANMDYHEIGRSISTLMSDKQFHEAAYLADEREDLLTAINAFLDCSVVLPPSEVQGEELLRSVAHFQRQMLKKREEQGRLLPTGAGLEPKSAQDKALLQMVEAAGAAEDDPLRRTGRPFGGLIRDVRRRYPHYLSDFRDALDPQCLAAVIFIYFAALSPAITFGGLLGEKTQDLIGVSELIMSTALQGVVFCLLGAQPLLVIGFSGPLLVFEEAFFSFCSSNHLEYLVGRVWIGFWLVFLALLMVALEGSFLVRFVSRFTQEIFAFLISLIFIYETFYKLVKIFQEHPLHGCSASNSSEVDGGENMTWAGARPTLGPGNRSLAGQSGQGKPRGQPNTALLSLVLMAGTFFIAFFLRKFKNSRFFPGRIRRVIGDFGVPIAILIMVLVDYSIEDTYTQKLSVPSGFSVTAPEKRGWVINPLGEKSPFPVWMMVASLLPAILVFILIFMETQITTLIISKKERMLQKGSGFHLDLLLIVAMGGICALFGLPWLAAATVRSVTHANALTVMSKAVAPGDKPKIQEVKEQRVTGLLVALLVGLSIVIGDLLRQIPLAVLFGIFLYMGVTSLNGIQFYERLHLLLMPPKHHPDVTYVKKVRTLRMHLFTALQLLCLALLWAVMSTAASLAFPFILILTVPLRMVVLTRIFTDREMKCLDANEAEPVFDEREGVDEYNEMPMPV
UniProt Q9ULF5: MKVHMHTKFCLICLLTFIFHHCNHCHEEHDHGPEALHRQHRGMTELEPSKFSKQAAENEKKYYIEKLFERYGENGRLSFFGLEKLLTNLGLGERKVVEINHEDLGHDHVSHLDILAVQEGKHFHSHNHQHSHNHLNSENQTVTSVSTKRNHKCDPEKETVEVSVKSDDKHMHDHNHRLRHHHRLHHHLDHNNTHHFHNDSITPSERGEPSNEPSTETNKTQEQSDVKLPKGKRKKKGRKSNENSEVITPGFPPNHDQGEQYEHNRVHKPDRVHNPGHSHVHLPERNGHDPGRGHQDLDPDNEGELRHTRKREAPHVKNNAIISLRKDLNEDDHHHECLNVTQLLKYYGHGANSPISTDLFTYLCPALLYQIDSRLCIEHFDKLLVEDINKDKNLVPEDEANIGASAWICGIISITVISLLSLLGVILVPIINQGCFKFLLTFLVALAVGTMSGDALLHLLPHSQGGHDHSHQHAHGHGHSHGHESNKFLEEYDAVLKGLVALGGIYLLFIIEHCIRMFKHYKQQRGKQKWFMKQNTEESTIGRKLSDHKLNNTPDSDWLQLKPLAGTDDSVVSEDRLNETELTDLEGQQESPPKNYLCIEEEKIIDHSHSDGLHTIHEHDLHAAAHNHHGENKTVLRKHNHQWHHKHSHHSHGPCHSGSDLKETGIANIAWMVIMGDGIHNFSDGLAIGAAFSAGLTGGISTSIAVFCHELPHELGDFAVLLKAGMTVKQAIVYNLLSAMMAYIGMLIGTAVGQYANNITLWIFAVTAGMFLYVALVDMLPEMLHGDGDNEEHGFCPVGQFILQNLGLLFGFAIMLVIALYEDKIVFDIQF
UniProt P49281: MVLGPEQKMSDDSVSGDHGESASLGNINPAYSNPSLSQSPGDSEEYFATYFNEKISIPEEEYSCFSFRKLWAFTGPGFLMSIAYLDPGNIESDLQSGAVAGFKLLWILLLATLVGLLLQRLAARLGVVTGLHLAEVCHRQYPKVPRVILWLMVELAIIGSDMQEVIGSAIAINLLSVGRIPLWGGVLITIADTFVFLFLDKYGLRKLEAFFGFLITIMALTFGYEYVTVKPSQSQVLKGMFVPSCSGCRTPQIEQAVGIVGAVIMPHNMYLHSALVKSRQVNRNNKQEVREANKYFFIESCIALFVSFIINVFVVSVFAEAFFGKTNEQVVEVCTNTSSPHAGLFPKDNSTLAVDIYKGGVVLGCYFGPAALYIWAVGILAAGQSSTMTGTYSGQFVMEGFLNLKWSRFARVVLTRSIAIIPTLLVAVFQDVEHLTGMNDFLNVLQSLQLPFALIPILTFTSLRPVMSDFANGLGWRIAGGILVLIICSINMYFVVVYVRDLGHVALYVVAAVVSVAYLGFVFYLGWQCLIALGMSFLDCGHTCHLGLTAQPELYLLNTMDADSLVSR
UniProt P11169: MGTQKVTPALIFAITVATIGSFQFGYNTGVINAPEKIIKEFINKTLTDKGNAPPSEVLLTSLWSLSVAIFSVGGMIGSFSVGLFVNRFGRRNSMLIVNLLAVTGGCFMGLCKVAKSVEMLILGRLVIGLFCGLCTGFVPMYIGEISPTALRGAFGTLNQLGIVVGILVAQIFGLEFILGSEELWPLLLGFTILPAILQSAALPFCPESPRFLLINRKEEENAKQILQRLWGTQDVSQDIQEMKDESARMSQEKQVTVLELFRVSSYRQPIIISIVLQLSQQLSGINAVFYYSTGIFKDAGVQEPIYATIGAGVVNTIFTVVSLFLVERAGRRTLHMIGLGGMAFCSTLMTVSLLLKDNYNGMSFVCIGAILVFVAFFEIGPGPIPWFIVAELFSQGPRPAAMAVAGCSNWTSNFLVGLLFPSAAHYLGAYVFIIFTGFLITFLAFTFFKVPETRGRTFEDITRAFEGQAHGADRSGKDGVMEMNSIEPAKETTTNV
UniProt Q8NBI5: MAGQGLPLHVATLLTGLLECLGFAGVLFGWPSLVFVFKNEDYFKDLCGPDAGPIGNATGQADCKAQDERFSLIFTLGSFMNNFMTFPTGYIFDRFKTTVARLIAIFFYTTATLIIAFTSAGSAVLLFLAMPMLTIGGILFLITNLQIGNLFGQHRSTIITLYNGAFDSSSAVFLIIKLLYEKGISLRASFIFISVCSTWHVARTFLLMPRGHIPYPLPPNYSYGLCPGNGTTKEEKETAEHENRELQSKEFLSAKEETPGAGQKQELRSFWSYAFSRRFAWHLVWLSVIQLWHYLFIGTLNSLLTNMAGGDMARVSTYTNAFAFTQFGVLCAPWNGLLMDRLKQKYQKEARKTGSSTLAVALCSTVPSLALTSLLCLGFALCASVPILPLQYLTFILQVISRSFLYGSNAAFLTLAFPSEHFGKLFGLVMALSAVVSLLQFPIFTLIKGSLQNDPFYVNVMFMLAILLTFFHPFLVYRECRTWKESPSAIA
UniProt Q9NP59: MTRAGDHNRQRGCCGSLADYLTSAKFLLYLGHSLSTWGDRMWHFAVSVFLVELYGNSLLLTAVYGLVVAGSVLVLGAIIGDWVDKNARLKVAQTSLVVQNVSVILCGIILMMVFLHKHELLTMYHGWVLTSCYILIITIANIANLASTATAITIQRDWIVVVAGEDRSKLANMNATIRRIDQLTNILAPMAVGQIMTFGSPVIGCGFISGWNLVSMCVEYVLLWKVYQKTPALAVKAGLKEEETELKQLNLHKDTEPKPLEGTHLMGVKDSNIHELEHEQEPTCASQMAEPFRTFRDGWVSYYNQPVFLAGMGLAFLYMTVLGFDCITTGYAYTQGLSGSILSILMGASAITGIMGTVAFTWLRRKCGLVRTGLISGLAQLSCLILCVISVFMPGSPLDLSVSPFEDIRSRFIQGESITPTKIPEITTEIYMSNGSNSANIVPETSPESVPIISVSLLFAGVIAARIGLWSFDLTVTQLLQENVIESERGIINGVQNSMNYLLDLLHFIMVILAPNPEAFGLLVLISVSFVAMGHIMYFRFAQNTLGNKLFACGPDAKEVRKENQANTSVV
UniProt L0R6Q1: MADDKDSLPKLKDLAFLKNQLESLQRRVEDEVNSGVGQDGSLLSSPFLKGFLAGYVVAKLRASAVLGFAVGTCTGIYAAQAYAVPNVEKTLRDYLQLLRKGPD
UniProt Q96AG3: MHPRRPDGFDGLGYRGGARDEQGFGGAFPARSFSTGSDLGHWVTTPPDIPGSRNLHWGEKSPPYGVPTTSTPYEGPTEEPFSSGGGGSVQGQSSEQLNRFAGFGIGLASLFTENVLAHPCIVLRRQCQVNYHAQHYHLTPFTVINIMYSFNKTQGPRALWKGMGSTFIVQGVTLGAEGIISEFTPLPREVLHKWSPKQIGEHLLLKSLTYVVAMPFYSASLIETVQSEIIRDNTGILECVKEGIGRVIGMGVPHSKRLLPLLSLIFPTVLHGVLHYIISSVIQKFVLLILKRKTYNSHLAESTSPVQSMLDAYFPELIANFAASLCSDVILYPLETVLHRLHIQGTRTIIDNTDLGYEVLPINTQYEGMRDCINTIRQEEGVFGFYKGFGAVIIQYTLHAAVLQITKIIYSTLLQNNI
UniProt Q7Z769: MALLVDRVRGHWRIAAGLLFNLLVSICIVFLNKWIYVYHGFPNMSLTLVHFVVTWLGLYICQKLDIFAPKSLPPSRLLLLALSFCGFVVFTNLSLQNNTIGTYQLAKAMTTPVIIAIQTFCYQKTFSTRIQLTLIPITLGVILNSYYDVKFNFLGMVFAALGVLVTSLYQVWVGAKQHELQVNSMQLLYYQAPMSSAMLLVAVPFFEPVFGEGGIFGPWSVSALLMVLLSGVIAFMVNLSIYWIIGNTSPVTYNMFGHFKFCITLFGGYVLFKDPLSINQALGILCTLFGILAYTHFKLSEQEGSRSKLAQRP
UniProt Q9BRV3: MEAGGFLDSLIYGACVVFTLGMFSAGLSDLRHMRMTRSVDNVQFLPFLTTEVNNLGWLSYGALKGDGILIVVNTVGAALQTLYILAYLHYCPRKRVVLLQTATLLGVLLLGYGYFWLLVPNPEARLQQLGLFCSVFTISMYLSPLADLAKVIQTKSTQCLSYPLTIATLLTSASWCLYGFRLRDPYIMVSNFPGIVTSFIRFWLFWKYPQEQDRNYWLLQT
UniProt Q8N697: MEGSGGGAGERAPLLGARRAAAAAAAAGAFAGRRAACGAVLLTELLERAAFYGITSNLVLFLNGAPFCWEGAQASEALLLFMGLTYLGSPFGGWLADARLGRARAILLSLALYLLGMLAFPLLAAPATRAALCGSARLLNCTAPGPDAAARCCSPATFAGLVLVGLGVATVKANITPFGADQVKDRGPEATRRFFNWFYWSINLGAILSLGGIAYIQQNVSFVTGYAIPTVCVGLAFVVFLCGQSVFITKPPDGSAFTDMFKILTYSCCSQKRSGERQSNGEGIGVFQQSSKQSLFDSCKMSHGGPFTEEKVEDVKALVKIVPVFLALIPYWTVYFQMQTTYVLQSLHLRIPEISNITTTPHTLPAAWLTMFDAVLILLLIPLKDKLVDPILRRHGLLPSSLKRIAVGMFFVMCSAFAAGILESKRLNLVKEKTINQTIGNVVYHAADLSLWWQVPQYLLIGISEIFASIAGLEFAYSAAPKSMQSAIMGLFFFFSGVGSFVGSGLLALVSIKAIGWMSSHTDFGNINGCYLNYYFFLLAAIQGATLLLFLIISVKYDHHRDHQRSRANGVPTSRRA

Assays:
Experiment in all cases: log2 fold change, soluble protein after heating vs DMSO (PISA); higher = thermal stabilisation; K562 cells, 10 uM, 30 min; active = over 0.2 and 3.5 SD of the protein, either way, in both replicates (recomputed)
[1] = compound: C#Cc1cccc(Nc2ncnc3cc(OCCOC)c(OCCOC)cc23)c1 [erlotinib]
Summary of the method: (§1)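 K562 cells at 2×10^6 cells/mL were treated for 30 min with 10 μM compound, and aliquots were heated for 3 min over 48°C-58°C before pooling. Extraction used PBS with 0.5% NP-40 at 4°C, and soluble protein was the supernatant after 21,000xg for 90 min, measured by TMTpro 16plex LC-MS/MS with channel sums equalised. Thermal stability values, relative to control samples and from duplicates, are log2 fold changes.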

[2] = compound: C/C(=N\NC(=O)C1=CC(=CC=C1)S(=O)(=O)N2CCOCC2)/C3=C(C=CC(=C3)Cl)O
Summary of the method: as §1

[3] = compound: C1=CC(=C(C=C1Cl)C2=NC3=NC=CN=C3C(=N2)NC4=CC=NC=C4)F
Summary of the method: as §1

[4] = compound: C1=CC(=CC=C1C2=NC3=C(N2)C=C(C=C3)C(=O)N)OC4=CC=C(C=C4)Cl
Summary of the method: as §1

[5] = compound: C1=CC2=C(C=CC(=C2)/C=C\3/C(=O)NC(=NCC4=CC=CS4)S3)N=C1
Summary of the method: as §1

[6] = compound: C1=CC2=NC=CN=C2C=C1/C=C/3\C(=O)NC(=O)S3
Summary of the method: as §1

[7] = compound: C1=CC=C(C=C1)C2=NC(=C(N2)C3=CC=NC=C3)C4=CC(=C(C=C4)Cl)O
Summary of the method: as §1

[8] = compound: C1=CC=C2C(=C1)C3=NNC4=CC=CC(=C43)C2=O
Summary of the method: as §1

[9] = compound: C1CCN(C1)C(=O)NC2=CC=CC(=C2)NC3=NC=C(C(=N3)NCCC4=CN=CN4)Br
Summary of the method: as §1

[10] = compound: C1CN(CCC1(CC2=CC=C(C=C2)Cl)N)C3=NC=NC4=C3C=CN4
Summary of the method: as §1

Measured: log2 fold change

SLC25A12 (UniProt O75746)
inactive: [1] 0.013 | [2] 0.008 | [3] 0.034 | [4] -0.002 | [5] -0.005 | [6] 0.027 | [7] 0 | [8] -0.016 | [9] 0.017 | [10] 0.037

SLC25A1 (UniProt P53007)
inactive: [1] -0.016 | [2] 0.032 | [3] 0.043 | [4] -0.01 | [5] -0.079 | [6] 0.033 | [7] 0.021 | [8] -0.008 | [9] 0.032 | [10] 0.083

SLC39A7 (UniProt Q92504)
inactive: [1] -0.032 | [2] -0.051 | [3] -0.025 | [4] 0.012 | [5] 0.045 | [6] 0.032 | [7] -0.011 | [8] 0.013 | [9] 0 | [10] 0.021

SLC25A37 (UniProt Q9NYZ2)
inactive: [1] 0.01 | [2] 0.001 | [3] -0.089 | [4] 0.025 | [5] -0.049 | [6] -0.082 | [7] -0.023 | [8] 0.018 | [9] 0.056 | [10] 0.052

SLC25A21 (UniProt Q9BQT8)
inactive: [1] -0.037 | [2] 0.012 | [3] 0.038 | [4] 0.026 | [5] 0 | [6] 0.029 | [7] -0.054 | [8] -0.015 | [9] 0.055 | [10] 0.057

SLC25A39 (UniProt Q9BZJ4)
inactive: [1] -0.072 | [2] -0.217 | [3] 0.038 | [4] 0.062 | [5] 0.193 | [6] 0.118 | [7] -0.042 | [8] -0.046 | [9] -0.186 | [10] 0.112

SLC30A7 (UniProt Q8NEW0)
inactive: [1] -0.004 | [2] 0.175 | [3] 0.062 | [4] 0.006 | [5] -0.086 | [6] 0.077 | [7] 0.109 | [8] 0.004 | [9] 0.016 | [10] 0.132

SLC4A2 (UniProt P04920)
inactive: [1] 0.015 | [2] 0.073 | [3] -0.062 | [4] 0.047 | [5] 0.076 | [6] 0.047 | [7] 0.043 | [8] -0.026 | [9] -0.023 | [10] 0.002

SLC38A10 (UniProt Q9HBR0)
inactive: [1] 0.059 | [2] -0.146 | [3] -0.023 | [4] -0.097 | [5] 0.025 | [6] 0.005 | [7] 0.003 | [8] -0.018 | [9] -0.052 | [10] 0.038

SLC39A10 (UniProt Q9ULF5)
inactive: [1] 0.026 | [2] 0.003 | [3] 0 | [4] -0.011 | [5] 0.041 | [6] 0 | [7] -0.074 | [8] -0.037 | [9] -0.035 | [10] 0.025

SLC12A9 (UniProt Q9BXP2)
inactive: [1] 0.023 | [2] 0.03 | [3] 0.039 | [4] -0.013 | [5] -0.04 | [6] 0.021 | [7] 0.016 | [8] -0.015 | [9] -0.019 | [10] -0.012

SLC37A4 isoform 2 (UniProt O43826)
inactive: [1] -0.033 | [2] -0.026 | [3] 0.04 | [4] 0.025 | [5] 0.007 | [6] 0.042 | [7] -0.041 | [8] -0.032 | [9] 0.078 | [10] 0.053

SLC11A2 isoform 3 (UniProt P49281)
inactive: [1] -0.011 | [2] -0.11 | [3] 0.072 | [4] 0 | [5] -0.019 | [6] 0.077 | [7] 0.238 | [8] -0.025 | [9] -0.039 | [10] 0.048

SLC31A1 (UniProt O15431)
inactive: [1] -0.024 | [2] -0.001 | [3] -0.053 | [4] -0.026 | [5] 0.003 | [6] 0.101 | [7] 0.162 | [8] -0.148 | [9] -0.038 | [10] 0.023

SLC44A2 isoform 2 (UniProt Q8IWA5)
inactive: [1] 0.059 | [2] 0.028 | [3] -0.059 | [4] -0.054 | [5] 0.019 | [6] -0.096 | [7] 0.073 | [8] -0.065 | [9] -0.105 | [10] 0.01

SLC2A3 (UniProt P11169)
inactive: [1] 0.011 | [2] 0.071 | [3] 0.062 | [4] -0.008 | [5] -0.061 | [6] 0.021 | [7] -0.067 | [8] -0.021 | [9] -0.024 | [10] 0.056

SLC43A3 isoform 2 (UniProt Q8NBI5)
inactive: [1] 0.002 | [2] -0.031 | [3] -0.027 | [4] 0 | [5] 0.043 | [6] 0.021 | [7] -0.042 | [8] -0.089 | [9] -0.027 | [10] 0.078

SLC40A1 (UniProt Q9NP59)
inactive: [1] -0.139 | [2] 0.072 | [3] 0.093 | [4] 0.039 | [5] -0.114 | [6] 0.132 | [7] 0.059 | [8] -0.15 | [9] -0.135 | [10] -0.165

SLC35A4 (UniProt L0R6Q1)
inactive: [1] -0.021 | [2] -0.02 | [3] 0.075 | [4] 0.003 | [5] 0.07 | [6] 0.059 | [7] 0.038 | [8] -0.04 | [9] -0.025 | [10] 0.026

2 successive entries from above, quoted:
SLC25A39 (UniProt Q9BZJ4)
inactive: [1] -0.072 | [2] -0.217 | [3] 0.038 | [4] 0.062 | [5] 0.193 | [6] 0.118 | [7] -0.042 | [8] -0.046 | [9] -0.186 | [10] 0.112

SLC30A7 (UniProt Q8NEW0)
inactive: [1] -0.004 | [2] 0.175 | [3] 0.062 | [4] 0.006 | [5] -0.086 | [6] 0.077 | [7] 0.109 | [8] 0.004 | [9] 0.016 | [10] 0.132

Additional results follow.

SLC4A7 isoform 7 (UniProt Q9Y6M7)
inactive: [1] -0.029 | [2] -0.131 | [3] 0.042 | [4] 0.09 | [5] -0.072 | [6] -0.018 | [7] 0.052 | [8] 0.01 | [9] -0.006 | [10] -0.02

SLC25A46 (UniProt Q96AG3)
inactive: [1] 0.008 | [2] 0.032 | [3] 0.051 | [4] -0.01 | [5] 0.023 | [6] -0.003 | [7] 0.038 | [8] 0.023 | [9] 0.057 | [10] 0.004

SLC35E3 (UniProt Q7Z769)
inactive: [1] -0.007 | [2] -0.001 | [3] 0.142 | [4] -0.093 | [5] 0.074 | [8] 0.014 | [9] 0.091 | [10] -0.043

SLC25A10 isoform 2 (UniProt Q9UBX3)
inactive: [1] -0.003 | [2] 0.013 | [3] -0.012 | [4] 0.034 | [5] -0.038 | [6] 0.023 | [7] 0.006 | [8] -0.024 | [9] -0.009 | [10] 0.078

SLC50A1 (UniProt Q9BRV3)
inactive: [1] -0.148 | [2] 0.08 | [4] -0.211 | [5] 0.683 | [6] 0.13 | [7] -0.037 | [8] -0.138

SLC25A4 (UniProt P12235)
inactive: [1] 0.007 | [2] -0.016 | [3] 0.035 | [4] -0.009 | [5] -0.004 | [6] 0.042 | [7] 0.045 | [8] -0.076 | [9] -0.019 | [10] 0.021

SLC35C1 (UniProt Q96A29)
inactive: [1] 0.063 | [2] 0.033 | [3] 0.173 | [4] -0.051 | [5] 0 | [6] 0.065 | [7] -0.035 | [8] -0.014 | [9] 0.043 | [10] 0.059

SLC25A3 isoform 2 (UniProt Q00325)
inactive: [1] -0.017 | [2] -0.013 | [3] -0.026 | [4] 0.006 | [5] -0.016 | [6] -0.001 | [7] -0.017 | [8] 0.047 | [9] 0.009 | [10] 0.068

SLC25A36 (UniProt Q96CQ1)
inactive: [1] -0.077 | [2] 0.008 | [3] -0.083 | [4] 0.003 | [5] 0.031 | [6] 0.102 | [7] -0.104 | [8] -0.034 | [9] 0.053 | [10] 0.068

SLC15A4 (UniProt Q8N697)
inactive: [1] -0.036 | [2] 0.025 | [4] 0.013 | [5] 0.049 | [6] -0.084 | [7] 0.133 | [8] -0.009 | [9] 0.021 | [10] 0.149

SLC25A22 (UniProt Q9H936)
inactive: [1] 0.024 | [2] 0.01 | [3] 0.024 | [4] -0.023 | [5] 0.012 | [6] 0.047 | [7] 0 | [8] -0.003 | [9] 0.033 | [10] 0.004
